Results as given in the supplement of paper PMC10849652.
Some of the results follow.

The chains behind the UniProt entries cited, without tags or fusion partners. Where a name states a change or a piece, a line headed by the entry shows the natural chain unless it says otherwise.
UniProt Q8TF05: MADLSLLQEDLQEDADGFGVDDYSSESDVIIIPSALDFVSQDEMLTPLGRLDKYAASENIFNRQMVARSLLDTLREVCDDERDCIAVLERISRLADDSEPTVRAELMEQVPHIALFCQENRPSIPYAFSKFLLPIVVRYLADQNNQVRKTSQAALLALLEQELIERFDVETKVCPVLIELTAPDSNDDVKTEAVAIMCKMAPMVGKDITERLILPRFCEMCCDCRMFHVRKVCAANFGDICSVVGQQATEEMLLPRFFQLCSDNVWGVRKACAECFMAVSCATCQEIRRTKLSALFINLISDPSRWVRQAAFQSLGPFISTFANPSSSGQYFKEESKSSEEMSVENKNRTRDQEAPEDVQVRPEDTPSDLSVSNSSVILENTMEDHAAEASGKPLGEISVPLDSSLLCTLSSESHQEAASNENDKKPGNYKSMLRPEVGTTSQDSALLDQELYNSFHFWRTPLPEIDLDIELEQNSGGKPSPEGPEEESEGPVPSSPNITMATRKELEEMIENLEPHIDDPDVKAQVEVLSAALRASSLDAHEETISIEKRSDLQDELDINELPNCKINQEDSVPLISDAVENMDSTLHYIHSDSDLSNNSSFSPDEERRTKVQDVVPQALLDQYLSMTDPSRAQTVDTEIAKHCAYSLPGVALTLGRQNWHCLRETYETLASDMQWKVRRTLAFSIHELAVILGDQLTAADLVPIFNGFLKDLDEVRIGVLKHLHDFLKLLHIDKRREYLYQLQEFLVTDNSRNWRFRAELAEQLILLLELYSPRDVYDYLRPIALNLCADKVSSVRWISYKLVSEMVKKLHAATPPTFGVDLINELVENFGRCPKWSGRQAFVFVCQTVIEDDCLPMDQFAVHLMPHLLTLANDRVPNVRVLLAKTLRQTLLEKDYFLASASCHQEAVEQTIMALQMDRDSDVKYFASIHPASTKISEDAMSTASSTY
UniProt P78395, whole entry, looked up: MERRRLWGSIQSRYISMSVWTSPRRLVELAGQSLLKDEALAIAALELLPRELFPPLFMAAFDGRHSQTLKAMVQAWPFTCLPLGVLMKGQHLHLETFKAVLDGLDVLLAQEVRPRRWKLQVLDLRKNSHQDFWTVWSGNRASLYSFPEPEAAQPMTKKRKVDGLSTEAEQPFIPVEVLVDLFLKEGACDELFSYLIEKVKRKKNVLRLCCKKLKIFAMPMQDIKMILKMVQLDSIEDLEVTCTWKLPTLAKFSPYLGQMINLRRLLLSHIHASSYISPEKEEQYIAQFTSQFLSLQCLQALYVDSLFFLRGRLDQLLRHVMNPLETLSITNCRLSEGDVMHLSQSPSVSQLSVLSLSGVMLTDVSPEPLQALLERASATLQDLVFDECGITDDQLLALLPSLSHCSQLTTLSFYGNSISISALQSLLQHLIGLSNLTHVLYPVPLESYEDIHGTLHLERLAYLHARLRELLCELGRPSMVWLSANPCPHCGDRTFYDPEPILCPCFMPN
UniProt Q9UNN8: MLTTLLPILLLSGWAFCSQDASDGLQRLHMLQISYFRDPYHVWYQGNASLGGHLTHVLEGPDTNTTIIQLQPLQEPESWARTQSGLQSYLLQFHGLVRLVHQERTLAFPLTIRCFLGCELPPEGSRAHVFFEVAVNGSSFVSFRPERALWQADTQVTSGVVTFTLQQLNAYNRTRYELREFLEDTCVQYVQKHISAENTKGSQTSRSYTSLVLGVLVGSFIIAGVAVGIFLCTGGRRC
UniProt P78527, whole entry, looked up: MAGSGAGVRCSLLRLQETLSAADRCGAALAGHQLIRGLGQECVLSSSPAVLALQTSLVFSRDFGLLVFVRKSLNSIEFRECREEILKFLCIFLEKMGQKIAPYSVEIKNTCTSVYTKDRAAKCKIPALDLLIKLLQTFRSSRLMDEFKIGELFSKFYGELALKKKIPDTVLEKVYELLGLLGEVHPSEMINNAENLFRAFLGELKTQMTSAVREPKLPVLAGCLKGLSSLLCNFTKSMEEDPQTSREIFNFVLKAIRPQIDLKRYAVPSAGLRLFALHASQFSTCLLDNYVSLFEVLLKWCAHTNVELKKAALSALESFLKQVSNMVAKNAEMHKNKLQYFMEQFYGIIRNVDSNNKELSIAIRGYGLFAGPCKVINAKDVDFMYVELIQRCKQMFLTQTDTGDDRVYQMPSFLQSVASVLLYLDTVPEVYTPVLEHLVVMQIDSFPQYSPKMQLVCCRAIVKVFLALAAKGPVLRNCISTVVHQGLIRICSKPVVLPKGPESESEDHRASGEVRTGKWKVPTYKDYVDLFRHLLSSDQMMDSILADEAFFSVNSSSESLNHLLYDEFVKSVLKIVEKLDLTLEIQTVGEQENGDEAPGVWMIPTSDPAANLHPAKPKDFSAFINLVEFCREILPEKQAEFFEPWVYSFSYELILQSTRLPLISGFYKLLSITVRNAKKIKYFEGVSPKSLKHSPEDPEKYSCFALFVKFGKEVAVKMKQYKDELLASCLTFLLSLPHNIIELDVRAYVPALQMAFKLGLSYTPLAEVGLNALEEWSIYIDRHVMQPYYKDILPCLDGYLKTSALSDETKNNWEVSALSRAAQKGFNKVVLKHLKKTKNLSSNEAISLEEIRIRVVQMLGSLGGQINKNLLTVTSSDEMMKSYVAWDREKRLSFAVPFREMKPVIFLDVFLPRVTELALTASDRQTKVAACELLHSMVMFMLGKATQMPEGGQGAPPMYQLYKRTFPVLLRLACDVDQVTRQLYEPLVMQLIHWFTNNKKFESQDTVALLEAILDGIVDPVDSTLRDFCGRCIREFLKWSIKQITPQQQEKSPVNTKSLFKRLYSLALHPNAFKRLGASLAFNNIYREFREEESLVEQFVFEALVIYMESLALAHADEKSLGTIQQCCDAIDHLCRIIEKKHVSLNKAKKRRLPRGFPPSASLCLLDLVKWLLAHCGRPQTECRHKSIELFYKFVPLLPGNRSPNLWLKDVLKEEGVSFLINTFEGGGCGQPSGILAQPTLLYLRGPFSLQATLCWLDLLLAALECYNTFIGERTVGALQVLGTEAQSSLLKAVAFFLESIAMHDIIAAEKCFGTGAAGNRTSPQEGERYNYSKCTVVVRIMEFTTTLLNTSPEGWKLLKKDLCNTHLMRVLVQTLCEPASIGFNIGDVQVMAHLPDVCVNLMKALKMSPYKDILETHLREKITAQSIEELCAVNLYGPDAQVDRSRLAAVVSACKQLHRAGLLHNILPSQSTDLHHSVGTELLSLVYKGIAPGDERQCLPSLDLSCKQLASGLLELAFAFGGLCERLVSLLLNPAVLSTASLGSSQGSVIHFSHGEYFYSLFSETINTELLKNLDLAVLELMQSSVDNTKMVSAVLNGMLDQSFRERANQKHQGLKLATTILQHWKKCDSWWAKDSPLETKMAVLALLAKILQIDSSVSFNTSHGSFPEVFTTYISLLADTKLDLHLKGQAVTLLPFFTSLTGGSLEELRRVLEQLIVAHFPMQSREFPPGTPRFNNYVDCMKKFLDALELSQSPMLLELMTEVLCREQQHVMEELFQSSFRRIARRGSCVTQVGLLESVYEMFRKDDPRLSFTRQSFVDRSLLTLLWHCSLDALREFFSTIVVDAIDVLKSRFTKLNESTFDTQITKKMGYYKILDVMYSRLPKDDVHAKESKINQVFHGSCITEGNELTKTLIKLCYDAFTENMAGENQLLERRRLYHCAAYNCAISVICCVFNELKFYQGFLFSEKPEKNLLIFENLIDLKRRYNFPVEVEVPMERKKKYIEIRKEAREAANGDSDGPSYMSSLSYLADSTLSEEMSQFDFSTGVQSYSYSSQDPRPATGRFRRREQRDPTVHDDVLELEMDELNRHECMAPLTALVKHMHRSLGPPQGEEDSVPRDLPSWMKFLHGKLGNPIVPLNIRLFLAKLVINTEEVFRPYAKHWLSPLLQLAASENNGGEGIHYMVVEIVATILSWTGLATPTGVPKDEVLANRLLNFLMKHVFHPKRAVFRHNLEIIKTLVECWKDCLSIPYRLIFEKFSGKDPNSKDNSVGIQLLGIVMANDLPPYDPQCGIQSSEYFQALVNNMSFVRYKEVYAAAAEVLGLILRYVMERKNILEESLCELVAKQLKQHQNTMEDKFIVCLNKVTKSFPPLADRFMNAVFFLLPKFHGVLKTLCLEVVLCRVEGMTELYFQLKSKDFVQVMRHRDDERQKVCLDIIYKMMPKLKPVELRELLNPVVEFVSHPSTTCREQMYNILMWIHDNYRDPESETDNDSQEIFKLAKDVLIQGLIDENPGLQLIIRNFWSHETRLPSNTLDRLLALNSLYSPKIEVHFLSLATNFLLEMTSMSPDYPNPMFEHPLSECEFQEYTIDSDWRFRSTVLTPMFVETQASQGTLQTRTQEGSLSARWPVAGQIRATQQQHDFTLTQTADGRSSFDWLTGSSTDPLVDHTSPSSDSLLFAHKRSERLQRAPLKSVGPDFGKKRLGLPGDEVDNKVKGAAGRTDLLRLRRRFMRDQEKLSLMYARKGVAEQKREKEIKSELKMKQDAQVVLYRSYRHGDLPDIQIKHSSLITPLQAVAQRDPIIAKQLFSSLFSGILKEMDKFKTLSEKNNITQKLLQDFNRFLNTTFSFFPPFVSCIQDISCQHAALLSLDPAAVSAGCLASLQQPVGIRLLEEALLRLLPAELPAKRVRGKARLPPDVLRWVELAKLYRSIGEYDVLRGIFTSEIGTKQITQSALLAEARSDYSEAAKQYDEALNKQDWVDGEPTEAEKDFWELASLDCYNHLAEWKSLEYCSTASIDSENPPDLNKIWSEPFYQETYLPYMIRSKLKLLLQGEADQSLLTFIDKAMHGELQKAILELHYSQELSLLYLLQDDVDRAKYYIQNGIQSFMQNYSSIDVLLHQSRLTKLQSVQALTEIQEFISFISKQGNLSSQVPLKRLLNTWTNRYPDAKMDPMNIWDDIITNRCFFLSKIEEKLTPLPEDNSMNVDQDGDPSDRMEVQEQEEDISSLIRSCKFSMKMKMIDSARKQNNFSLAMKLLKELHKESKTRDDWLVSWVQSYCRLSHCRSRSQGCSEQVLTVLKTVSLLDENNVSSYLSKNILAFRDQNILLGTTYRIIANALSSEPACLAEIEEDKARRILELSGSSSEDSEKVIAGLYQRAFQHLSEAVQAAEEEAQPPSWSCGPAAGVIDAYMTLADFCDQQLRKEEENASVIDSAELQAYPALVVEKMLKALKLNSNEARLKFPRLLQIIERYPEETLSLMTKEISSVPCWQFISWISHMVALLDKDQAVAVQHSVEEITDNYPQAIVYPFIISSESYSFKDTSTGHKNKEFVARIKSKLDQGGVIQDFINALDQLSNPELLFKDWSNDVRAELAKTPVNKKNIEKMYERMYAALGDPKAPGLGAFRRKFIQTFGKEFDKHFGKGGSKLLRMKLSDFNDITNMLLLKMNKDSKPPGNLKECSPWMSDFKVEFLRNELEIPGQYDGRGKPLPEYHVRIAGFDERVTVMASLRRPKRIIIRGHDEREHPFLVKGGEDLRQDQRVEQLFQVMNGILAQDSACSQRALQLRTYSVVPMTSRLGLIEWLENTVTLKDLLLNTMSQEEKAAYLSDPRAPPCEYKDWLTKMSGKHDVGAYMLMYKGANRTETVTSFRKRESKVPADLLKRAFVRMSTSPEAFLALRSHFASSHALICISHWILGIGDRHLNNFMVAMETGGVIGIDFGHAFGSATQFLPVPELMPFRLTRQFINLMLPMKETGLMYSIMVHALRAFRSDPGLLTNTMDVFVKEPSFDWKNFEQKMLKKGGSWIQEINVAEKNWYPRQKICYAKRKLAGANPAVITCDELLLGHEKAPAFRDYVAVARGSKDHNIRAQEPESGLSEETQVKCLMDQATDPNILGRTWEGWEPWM
UniProt P32119: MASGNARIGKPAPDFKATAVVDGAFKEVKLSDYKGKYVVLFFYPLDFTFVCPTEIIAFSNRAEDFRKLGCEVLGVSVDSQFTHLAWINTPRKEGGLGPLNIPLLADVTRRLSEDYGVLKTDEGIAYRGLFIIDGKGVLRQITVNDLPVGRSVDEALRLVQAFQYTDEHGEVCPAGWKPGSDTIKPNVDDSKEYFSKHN
UniProt P42785: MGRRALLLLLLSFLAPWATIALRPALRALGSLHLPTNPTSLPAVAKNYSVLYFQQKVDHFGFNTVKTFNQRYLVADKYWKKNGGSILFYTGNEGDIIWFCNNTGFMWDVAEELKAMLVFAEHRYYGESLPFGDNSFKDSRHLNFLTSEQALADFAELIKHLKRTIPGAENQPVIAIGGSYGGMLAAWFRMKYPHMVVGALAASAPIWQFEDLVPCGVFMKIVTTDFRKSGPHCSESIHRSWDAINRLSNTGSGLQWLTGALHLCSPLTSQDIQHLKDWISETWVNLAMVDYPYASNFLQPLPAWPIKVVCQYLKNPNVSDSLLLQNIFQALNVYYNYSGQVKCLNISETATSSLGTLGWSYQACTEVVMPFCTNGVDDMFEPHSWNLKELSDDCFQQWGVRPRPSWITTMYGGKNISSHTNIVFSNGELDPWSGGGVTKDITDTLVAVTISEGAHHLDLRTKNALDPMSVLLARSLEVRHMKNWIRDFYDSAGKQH

Compound: CC1=C(SC2=C1C(=N[C@H](C3=NN=C(N32)C)CC(=O)N)C4=CC=C(C=C4)Cl)C
Experiment: log2 fold change, soluble protein after heating vs DMSO (PISA); higher = thermal stabilisation; K562 cells, 10 uM, 30 min; active = over 0.2 and 3.5 SD of the protein, either way, in both replicates (recomputed)
In short: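 K562 cells at 2×10^6 cells/mL were treated for 30 min with 10 μM compound, and aliquots were heated for 3 min over 48°C-58°C before pooling. Extraction used PBS with 0.5% NP-40 at 4°C, and soluble protein was the supernatant after 21,000xg for 90 min, measured by TMTpro 16plex LC-MS/MS with channel sums equalised. Thermal stability values, relative to control samples and from duplicates, are log2 fold changes.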

Target | log2 fold change
PRKAG2 (UniProt Q9UGJ0) | inactive: 0.073
PPP2R5C isoform 5 (UniProt Q13362) | inactive: 0.001
PPME1 (UniProt Q9Y570) | inactive: 0.061
PRKAB2 (UniProt O43741) | inactive: 0.084
PREPL (UniProt Q4J6C6) | inactive: 0.009
PRPF19 (UniProt Q9UMS4) | inactive: 0.042
PRPF18 (UniProt Q99633) | inactive: 0.006
PPP1R14C (UniProt Q8TAE6) | inactive: 0.077
PPP5C (UniProt P53041) | inactive: 0.02
PPP4R1 (UniProt Q8TF05) | inactive: 0.035
PRAME (UniProt P78395) | inactive: -0.079
PRRC2B (UniProt Q5JSZ5) | inactive: 0.007
PRKCQ (UniProt Q04759) | inactive: 0.069
PRKACA (UniProt P17612) | inactive: 0.005
PRPF40A (UniProt O75400) | inactive: 0.016
PROCR (UniProt Q9UNN8) | inactive: 0.07
PRKDC (UniProt P78527) | inactive: 0.048
PRDX4 (UniProt Q13162) | inactive: 0.043
PRKCSH (UniProt P14314) | inactive: 0.013
PRKCSH (UniProt K7ELL7) | inactive: -0.014
PRDX2 (UniProt P32119) | inactive: 0.053
PRCP (UniProt P42785) | inactive: -0.036
PRPF38B (UniProt Q5VTL8) | inactive: 0.066

A portion of the results above:
Target | log2 fold change
PRRC2B (UniProt Q5JSZ5) | inactive: 0.007
PRKCQ (UniProt Q04759) | inactive: 0.069
